For at least one compound, name, drawing or mass did not settle the structure.
Assays:
[1] = system: AKT Ser473 phosphorylation; assay: Fractionation and immunoblotting of MEF1&2KO cells transfected with activated Ack and AKT; type: cell-based, mouse; conditions: MEF1&2KO cells with activated Ack and AKT, LY294002 10 μM 1 h
[2] = system: AKT Ser473-phosphorylation; assay: Immunoblot of AKT Ser473-phosphorylation in EGF-treated MEFs; type: cell-based, mouse; conditions: LY294002 10 μM 1 h pretreatment, EGF 10 ng/ml 10 mins
Ack1/AKT complex = assay: Co-immunoprecipitation of endogenous Ack1/AKT complex in EGF-treated MEFs; type: cell-based, mouse; conditions: MEFs serum starved, LY294002 10 μM 1 h pretreatment, EGF 10 ng/ml 10 mins
[3] = system: AKT Tyr176-phosphorylation; assay: Cell fractionation and immunoblotting of pTyr176-AKT in MCF-7 cells; type: cell-based, human; conditions: LY294002 10 μM 1 h, then heregulin 40 mins, membrane fraction
Experimental: (§1) FIG. 27 is a blot showing Tyr176-phosphorylation regulates AKT plasma membrane localization. MCF-7 cells were serum starved (24 h) and treated with insulin (50 ng/ml) or for indicated times. Cell lysates were fractionated and IB with the indicated antibodies. Input panels pAck1 (Tyr), pIR(Tyr) and pHER-2(Tyr) represents IP with respective antibodies followed by IB with pTyr antibodies.
as §1, with “28” for “27”, “(C) heregulin (30” for “with insulin (50”, “ng/ml)” for “ng/ml) or”
FIG. 29 is a blot showing Tyr176-phosphorylation regulates AKT plasma membrane localization. MCF7 cells were transfected with control or Ack1-specific siRNAs (40 nM) for 48 h and treated with heregulin for 40 mins. Cell lysates were fractionated and IB with indicated antibodies.
FIG. 34 is a blot showing Tyr176-phosphorylation of AKT is PI3K-independent. MCF-7 cells were pretreated with LY294002 (10 μM, 1 h) followed by heregulin for 40 mins. Cell lysates were fractionated and membrane fraction was subjected to IB with indicated antibodies.
Cell fractionation, immunoprecipitations and kinase assay. […]

SMILES: O=c1cc(N2CCOCC2)oc2c(-c3ccccc3)cccc12 [LY294002]
- AKT Ser473 phosphorylation in membrane fraction [1]: unaffected
- AKT Ser473-phosphorylation [2]: substantial decrease
- endogenous Akt1/Ack1 stable complex formation (Ack1/AKT complex): not abrogated
- endogenous AKT Tyr176-phosphorylation and membrane localization [3]: neither affected
